Test results published in paper PMC5078065.
Results are given in words; binding and its absence hold for the method and conditions named. In cells and extracts the contact can be indirect. Some results given as binding are weak or reduced against the parent protein; the word gives no strength.

By UniProt entry, the sequences of proteins in these tests, tags left out.
UniProt P07355: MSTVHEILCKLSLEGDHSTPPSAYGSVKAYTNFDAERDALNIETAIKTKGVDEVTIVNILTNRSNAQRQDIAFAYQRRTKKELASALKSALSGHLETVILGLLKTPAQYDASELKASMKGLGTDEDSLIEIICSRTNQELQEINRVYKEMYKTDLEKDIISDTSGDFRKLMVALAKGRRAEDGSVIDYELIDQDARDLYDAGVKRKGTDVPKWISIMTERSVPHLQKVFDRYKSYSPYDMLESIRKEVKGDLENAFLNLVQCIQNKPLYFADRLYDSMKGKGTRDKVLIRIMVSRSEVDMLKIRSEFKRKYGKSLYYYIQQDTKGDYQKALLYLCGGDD

Biological target: T1, ubiquitin associated protein 2 (human) (UniProt Q5T6F2)
T1 sequence: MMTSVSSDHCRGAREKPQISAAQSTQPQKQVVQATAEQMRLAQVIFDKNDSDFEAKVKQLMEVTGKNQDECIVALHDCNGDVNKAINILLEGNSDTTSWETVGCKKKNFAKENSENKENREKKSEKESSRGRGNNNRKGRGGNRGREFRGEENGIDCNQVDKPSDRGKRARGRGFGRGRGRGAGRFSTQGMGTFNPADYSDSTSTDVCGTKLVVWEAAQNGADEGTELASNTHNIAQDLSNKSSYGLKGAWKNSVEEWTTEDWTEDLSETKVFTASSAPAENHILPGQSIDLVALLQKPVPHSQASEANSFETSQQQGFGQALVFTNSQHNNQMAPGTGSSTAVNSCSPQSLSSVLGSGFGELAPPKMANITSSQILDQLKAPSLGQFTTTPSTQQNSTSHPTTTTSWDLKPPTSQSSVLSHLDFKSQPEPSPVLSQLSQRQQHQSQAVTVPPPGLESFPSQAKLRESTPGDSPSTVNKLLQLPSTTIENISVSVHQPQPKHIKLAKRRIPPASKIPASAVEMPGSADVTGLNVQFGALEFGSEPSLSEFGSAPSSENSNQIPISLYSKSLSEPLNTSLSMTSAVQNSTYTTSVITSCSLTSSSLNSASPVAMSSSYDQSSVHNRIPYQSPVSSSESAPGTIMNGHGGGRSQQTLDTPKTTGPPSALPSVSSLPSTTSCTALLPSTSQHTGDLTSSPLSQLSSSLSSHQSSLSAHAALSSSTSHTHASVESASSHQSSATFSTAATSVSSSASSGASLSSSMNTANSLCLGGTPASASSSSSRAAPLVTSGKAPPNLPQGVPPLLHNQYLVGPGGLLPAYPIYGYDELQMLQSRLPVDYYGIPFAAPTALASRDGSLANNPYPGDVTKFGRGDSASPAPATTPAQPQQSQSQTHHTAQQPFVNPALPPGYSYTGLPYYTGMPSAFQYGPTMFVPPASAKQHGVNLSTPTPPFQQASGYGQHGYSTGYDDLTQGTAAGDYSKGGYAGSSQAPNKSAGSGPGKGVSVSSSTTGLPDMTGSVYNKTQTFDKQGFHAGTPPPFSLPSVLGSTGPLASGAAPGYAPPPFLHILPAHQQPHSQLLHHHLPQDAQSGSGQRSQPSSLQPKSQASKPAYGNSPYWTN
Assay: co-IP; reciprocal co-IP in PLC/PRF/5 cells, western blot

- binding: binds
Substance: Annexin A2 (from UniProt P07355 1-339)
